Experimental data published in the supplement of paper PMC10849652.
Some of the results follow.

The chains behind the UniProt entries cited, without tags or fusion partners. Where a name states a change or a piece, a line headed by the entry shows the natural chain unless it says otherwise.
UniProt Q9NP50: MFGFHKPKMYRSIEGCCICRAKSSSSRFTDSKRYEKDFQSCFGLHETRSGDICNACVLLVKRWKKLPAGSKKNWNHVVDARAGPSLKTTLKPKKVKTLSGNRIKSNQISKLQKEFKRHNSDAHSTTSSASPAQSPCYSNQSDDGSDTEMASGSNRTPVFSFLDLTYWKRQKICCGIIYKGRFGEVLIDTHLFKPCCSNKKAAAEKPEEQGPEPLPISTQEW
UniProt Q86VZ5: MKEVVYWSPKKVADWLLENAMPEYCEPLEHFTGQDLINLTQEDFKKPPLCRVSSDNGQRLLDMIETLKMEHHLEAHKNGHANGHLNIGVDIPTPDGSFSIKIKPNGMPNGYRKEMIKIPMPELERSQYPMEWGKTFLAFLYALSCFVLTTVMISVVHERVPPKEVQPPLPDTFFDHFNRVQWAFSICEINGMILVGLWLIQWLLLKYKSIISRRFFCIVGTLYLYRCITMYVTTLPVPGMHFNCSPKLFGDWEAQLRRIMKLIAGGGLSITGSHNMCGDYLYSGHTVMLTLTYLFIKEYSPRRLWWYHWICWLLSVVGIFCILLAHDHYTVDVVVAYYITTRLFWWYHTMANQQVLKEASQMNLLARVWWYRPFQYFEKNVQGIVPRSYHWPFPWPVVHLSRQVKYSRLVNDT
UniProt Q96B97, whole entry, looked up: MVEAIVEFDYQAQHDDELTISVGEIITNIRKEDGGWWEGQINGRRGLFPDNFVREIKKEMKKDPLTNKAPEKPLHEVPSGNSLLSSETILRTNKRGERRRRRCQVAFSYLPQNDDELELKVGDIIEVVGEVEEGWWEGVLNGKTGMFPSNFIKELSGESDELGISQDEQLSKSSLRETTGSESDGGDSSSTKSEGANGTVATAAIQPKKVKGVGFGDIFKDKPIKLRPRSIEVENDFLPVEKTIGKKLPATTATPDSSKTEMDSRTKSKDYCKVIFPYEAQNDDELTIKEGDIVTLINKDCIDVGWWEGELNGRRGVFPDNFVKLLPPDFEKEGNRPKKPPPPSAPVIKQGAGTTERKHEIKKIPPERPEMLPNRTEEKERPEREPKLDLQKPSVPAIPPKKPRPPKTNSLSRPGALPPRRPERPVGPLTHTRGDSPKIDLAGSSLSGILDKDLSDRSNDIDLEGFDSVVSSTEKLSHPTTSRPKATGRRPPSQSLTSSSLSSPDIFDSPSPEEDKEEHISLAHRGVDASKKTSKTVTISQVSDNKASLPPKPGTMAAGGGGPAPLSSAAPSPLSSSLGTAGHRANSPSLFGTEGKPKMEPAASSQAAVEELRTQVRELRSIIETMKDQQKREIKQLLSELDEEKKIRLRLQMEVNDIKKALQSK
UniProt Q96BR1: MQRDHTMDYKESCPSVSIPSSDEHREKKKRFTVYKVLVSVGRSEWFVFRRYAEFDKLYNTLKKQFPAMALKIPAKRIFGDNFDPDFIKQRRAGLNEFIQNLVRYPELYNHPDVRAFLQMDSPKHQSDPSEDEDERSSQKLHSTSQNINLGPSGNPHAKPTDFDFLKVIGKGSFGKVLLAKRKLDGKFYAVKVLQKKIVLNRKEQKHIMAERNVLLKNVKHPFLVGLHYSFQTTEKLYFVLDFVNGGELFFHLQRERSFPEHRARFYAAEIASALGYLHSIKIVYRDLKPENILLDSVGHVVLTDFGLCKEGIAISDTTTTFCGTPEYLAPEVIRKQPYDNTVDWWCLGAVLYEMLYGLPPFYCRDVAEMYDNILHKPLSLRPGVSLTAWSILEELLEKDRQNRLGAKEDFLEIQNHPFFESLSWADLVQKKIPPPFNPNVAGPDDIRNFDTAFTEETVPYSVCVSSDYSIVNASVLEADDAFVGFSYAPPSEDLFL
UniProt Q9H0F6: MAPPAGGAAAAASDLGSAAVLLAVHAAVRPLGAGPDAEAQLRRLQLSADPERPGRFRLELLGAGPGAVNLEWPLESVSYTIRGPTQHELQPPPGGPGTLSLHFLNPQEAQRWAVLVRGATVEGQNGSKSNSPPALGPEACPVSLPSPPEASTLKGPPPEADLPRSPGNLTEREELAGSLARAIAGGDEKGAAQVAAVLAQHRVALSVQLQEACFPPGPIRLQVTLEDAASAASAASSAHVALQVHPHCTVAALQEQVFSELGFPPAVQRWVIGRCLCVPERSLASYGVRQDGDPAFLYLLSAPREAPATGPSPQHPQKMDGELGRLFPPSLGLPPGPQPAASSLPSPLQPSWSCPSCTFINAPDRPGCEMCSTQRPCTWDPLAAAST
UniProt Q8IUQ4: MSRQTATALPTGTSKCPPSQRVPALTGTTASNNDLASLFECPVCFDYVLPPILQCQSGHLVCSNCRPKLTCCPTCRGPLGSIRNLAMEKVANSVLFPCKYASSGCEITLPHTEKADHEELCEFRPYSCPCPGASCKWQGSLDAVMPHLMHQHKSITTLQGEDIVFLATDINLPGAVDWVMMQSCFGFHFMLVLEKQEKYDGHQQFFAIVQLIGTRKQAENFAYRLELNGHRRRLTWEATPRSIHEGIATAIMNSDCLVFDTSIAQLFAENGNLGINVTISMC
UniProt Q6PI26: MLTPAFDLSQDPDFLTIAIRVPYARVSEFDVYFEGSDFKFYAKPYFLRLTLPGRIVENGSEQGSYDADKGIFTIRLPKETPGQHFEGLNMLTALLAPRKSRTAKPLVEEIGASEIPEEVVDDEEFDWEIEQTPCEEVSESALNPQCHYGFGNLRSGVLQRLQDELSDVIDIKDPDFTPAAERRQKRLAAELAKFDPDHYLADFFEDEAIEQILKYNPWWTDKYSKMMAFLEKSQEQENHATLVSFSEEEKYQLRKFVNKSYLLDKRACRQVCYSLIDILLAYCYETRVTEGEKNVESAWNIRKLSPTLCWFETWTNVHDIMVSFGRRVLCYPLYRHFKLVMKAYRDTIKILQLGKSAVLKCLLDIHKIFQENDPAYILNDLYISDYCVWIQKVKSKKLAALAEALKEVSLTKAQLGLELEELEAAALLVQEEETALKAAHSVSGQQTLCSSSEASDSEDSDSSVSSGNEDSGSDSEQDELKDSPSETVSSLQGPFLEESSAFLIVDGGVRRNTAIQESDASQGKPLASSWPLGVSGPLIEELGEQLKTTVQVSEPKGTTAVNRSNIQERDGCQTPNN
UniProt Q96JX3: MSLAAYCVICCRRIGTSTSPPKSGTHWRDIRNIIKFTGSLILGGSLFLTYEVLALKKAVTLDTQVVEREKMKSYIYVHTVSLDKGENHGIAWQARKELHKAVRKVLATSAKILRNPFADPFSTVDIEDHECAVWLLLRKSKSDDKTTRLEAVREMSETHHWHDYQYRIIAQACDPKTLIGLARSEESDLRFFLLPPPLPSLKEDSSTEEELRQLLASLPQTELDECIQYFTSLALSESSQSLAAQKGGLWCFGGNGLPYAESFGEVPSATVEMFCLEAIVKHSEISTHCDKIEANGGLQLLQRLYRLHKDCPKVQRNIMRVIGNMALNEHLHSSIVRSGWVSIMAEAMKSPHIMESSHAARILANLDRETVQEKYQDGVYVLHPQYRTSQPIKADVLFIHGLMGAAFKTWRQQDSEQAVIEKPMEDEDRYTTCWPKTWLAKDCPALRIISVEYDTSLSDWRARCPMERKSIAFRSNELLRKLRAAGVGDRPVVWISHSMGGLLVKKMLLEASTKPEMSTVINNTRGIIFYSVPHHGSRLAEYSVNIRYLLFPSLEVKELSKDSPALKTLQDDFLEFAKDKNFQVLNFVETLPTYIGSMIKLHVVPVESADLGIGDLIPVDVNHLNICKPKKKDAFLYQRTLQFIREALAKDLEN
UniProt Q9Y6P5: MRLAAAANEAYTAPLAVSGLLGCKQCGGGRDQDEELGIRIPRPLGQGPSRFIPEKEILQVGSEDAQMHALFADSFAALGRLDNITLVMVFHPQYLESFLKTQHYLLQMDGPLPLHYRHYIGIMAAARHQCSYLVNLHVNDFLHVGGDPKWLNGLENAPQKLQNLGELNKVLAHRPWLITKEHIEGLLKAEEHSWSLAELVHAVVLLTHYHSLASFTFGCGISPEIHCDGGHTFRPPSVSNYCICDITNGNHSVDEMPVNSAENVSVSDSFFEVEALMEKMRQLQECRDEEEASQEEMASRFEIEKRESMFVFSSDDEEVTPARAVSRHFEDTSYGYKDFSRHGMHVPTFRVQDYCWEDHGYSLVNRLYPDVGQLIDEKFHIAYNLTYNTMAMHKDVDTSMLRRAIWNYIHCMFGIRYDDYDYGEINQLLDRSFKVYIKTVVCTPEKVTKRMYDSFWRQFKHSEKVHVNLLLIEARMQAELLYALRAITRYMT
UniProt Q9H0K1: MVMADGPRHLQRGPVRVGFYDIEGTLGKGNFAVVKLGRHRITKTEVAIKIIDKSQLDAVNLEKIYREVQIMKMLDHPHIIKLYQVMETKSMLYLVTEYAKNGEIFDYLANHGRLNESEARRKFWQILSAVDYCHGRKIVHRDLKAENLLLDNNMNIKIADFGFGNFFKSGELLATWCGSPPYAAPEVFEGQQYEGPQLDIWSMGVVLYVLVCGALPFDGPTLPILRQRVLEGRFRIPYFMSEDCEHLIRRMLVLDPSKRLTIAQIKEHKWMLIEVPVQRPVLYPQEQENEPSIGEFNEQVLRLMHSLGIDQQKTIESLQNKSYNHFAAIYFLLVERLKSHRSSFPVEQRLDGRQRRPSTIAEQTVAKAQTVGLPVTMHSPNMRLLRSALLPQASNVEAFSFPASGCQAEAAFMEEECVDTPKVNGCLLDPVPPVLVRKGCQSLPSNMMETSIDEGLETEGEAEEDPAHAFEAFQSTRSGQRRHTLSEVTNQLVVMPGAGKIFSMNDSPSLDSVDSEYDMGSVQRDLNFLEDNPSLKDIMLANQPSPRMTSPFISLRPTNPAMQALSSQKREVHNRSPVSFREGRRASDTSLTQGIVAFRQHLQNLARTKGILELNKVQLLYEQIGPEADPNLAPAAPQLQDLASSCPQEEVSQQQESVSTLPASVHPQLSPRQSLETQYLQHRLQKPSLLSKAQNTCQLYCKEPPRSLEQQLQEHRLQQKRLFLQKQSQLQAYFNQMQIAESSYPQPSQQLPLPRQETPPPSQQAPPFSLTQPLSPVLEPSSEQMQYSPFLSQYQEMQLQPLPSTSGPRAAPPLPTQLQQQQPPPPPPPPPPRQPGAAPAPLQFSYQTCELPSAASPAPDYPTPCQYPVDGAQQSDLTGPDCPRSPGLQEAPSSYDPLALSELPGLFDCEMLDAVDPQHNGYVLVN
UniProt O15427: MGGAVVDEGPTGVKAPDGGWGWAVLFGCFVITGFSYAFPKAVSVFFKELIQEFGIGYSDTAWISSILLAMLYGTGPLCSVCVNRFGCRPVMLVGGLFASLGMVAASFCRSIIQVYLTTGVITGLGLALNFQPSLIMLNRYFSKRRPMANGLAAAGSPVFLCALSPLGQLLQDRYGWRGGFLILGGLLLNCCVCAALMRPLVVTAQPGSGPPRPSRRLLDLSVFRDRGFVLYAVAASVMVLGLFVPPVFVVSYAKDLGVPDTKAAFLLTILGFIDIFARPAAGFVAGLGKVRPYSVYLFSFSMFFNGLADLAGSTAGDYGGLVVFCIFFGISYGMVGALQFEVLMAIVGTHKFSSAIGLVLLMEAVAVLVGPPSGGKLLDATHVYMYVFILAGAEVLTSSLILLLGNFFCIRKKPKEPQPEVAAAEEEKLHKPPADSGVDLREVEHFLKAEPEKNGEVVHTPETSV
UniProt Q9HAT2: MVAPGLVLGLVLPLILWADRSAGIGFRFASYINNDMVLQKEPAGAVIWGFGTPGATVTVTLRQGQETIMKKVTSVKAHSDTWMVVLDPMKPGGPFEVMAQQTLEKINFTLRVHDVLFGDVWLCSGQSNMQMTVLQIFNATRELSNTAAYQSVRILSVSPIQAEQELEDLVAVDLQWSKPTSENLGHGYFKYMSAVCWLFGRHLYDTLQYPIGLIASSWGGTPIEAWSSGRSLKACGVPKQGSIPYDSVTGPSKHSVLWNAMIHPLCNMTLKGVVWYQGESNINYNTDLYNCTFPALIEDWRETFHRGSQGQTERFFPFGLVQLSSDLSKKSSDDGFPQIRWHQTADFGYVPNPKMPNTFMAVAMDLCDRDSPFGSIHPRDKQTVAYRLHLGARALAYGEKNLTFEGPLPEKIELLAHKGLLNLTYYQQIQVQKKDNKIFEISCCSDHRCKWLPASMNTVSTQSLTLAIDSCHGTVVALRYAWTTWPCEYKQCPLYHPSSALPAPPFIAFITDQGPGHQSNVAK
UniProt P08697: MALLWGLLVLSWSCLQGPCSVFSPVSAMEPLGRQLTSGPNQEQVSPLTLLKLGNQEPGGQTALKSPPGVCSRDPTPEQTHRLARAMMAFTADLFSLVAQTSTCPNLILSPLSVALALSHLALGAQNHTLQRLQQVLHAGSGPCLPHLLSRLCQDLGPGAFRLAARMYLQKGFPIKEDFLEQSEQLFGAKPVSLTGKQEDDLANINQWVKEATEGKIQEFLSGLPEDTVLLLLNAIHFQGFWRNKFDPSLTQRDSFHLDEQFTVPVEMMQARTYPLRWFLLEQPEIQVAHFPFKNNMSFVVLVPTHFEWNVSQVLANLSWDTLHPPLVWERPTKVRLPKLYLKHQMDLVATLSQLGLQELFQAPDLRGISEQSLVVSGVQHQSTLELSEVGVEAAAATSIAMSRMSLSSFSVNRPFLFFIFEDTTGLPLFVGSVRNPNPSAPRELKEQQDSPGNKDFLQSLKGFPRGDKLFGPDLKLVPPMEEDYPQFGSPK

Assays:
Experiment in all cases: log2 fold change, soluble protein after heating vs DMSO (PISA); higher = thermal stabilisation; K562 lysate, 10 uM; active = over 0.2 and 3.5 SD of the protein, either way, in both replicates (recomputed)
[1] = compound: C#Cc1cccc(Nc2ncnc3cc(OCCOC)c(OCCOC)cc23)c1 [erlotinib]
Method in brief: (§1)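 Quantification was by TMTpro 16plex LC-MS/MS with equalised channel sums, applied to the supernatant after 21,000xg for 90 min. Samples were crude K562 extract at 1 mg/mL protein in PBS pH 7.4 with 1 mM MgCl2, treated with 10 μM compound for 30 min, heated for 3 min across 48°C-58°C, pooled and brought to 0.5% NP-40 at 4°C. Values are log-two fold changes in thermal stability relative to solvent controls, from duplicates.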

[2] = compound: C/C(=N\NC(=O)C1=CC(=CC=C1)S(=O)(=O)N2CCOCC2)/C3=C(C=CC(=C3)Cl)O
Method in brief: as §1

[3] = compound: C1=CC(=CC=C1C2=NC3=C(N2)C=C(C=C3)C(=O)N)OC4=CC=C(C=C4)Cl
Method in brief: as §1

[4] = compound: C1=CC2=C(C=CC(=C2)/C=C\3/C(=O)NC(=NCC4=CC=CS4)S3)N=C1
Method in brief: as §1

[5] = compound: C1=CC=C(C=C1)C2=NC(=C(N2)C3=CC=NC=C3)C4=CC(=C(C=C4)Cl)O
Method in brief: as §1

[6] = compound: C1=CC=C2C(=C1)C3=NNC4=CC=CC(=C43)C2=O
Method in brief: as §1

[7] = compound: C1COCCN1CCN2C3=CC=CC=C3N=C2NC(=O)C4=CC(=CC=C4)[N+](=O)[O-] [IRAK-1-4 Inhibitor I]
Method in brief: as §1

[8] = compound: CC(C)(C)Cn1c(N)nc2ccc(-c3[nH]c(C(C)(C)C)nc3-c3ccc(F)cc3)nc21 [ralimetinib]
Method in brief: as §1

[9] = compound: CC(C)(O)CC(=O)NCCn1ccc2ncnc(Nc3ccc(Oc4cccc(C(F)(F)F)c4)c(Cl)c3)c21
Method in brief: as §1

[10] = compound: CC(C)C1=C2N=C(C=C(N2N=C1)NCC3=CC=CC=C3)NCCCCCCN
Method in brief: as §1

[11] = compound: CC1=C(C(CC(=O)N1)C2=CC=C(C=C2)C(F)(F)F)C(=O)NC3=C(C=C4C(=C3)C=NN4)F
Method in brief: as §1

[12] = compound: CC1=C(C2=C(C=C1)C(=O)C3=CC=CC=C3N2CCCN)C
Method in brief: as §1

[13] = compound: CC1=C(C=C(C=C1)NC(=O)C2=CC(=CC=C2)C(C)(C)C#N)NC3=CC4=C(C=C3)N=CN(C4=O)C
Method in brief: as §1

[14] = compound: CC1=C(C=C(C=C1)NC(=O)C2=CC(=CC=C2)N(C)C)NC(=O)C3=CC=C(C=C3)O
Method in brief: as §1

[15] = compound: C1CCN(C1)C(=O)NC2=CC=CC(=C2)NC3=NC=C(C(=N3)NCCC4=CN=CN4)Br
Method in brief: as §1

[16] = compound: C1CN(CCC1(CC2=CC=C(C=C2)Cl)N)C3=NC=NC4=C3C=CN4
Method in brief: as §1

[17] = compound: CC(=O)c1cnc2ccc(-c3cc(Cl)c(O)c(Cl)c3)nc2c1N[C@H]1CC[C@H](CN(C)C)CC1
Method in brief: as §1

[18] = compound: CC1=CC=C(C=C1)SC2=C3C=C(SC3=CN=C2)C(=O)N
Method in brief: as §1

[19] = compound: C1=CC2=NC=CN=C2C=C1/C=C/3\C(=O)NC(=O)S3
Method in brief: as §1

[20] = compound: C=CC(=O)N1CCC[C@@H](n2nc(-c3ccc(Oc4ccccc4)cc3)c3c(N)ncnc32)C1 [ibrutinib]
Method in brief: as §1

Measured: log2 fold change

SINHCAF (UniProt Q9NP50)
inactive: [1] 0.115 | [2] 0.377 | [3] -0.168 | [4] -0.906 | [5] -0.031 | [6] 0.015 | [7] 0.079 | [8] 0.047 | [9] -0.1 | [10] -0.007 | [11] 0.086 | [12] 0.094 | [13] 0.012 | [14] 0.022

SGMS1 (UniProt Q86VZ5)
inactive: [1] -0.005 | [2] 0.092 | [3] -0.018 | [4] 0.006 | [5] -0.023 | [6] -0.102 | [15] -0.059 | [16] -0.006 | [7] 0.01 | [17] 0.003 | [8] -0.001 | [9] 0.007 | [10] 0.007 | [11] -0.02 | [12] 0.051 | [13] -0.082 | [14] 0.003 | [18] 0.057

SH3KBP1 (UniProt Q96B97)
inactive: [1] -0.01 | [3] 0.016 | [19] 0.014 | [5] -0.115 | [15] -0.04 | [16] -0.115 | [7] 0.03 | [20] 0.349 | [17] -0.016 | [8] 0.035 | [9] -0.184 | [10] 0.037 | [12] 0.048 | [13] 0.046 | [14] -0.013 | [18] 0.097

SGK3 (UniProt Q96BR1)
inactive: [1] -0.396 | [2] 0.147 | [3] 0.152 | [4] 0.042 | [5] 0.194 | [6] 0.141 | [7] -0.051 | [8] 0.091 | [9] -0.119 | [10] -0.255 | [12] -0.012 | [14] -0.163

SHARPIN (UniProt Q9H0F6)
inactive: [1] 0.088 | [2] 0.019 | [3] -0.157 | [4] 0.09 | [5] -0.081 | [6] -0.026 | [15] 0.013 | [16] 0.022 | [7] -0.177 | [17] -0.109 | [8] 0.042 | [9] 0.002 | [10] 0.153 | [11] -0.07 | [12] -0.063 | [13] 0.001 | [14] 0.009 | [18] -0.138

SIAH1 isoform 2 (UniProt Q8IUQ4)
inactive: [1] 0.016 | [3] -0.052 | [5] 0.039 | [7] 0.001 | [17] -0.005 | [8] -0.038 | [9] -0.021 | [10] 0.041 | [11] 0.09 | [13] -0.02 | [14] -0.055 | [18] -0.033

Copied from the listing (two entries):
SHARPIN (UniProt Q9H0F6)
inactive: [1] 0.088 | [2] 0.019 | [3] -0.157 | [4] 0.09 | [5] -0.081 | [6] -0.026 | [15] 0.013 | [16] 0.022 | [7] -0.177 | [17] -0.109 | [8] 0.042 | [9] 0.002 | [10] 0.153 | [11] -0.07 | [12] -0.063 | [13] 0.001 | [14] 0.009 | [18] -0.138

SIAH1 isoform 2 (UniProt Q8IUQ4)
inactive: [1] 0.016 | [3] -0.052 | [5] 0.039 | [7] 0.001 | [17] -0.005 | [8] -0.038 | [9] -0.021 | [10] 0.041 | [11] 0.09 | [13] -0.02 | [14] -0.055 | [18] -0.033

Continued:

SHQ1 (UniProt Q6PI26)
inactive: [1] -0.133 | [3] 0.046 | [19] 0.055 | [5] -0.039 | [7] -0.229 | [20] 0.021 | [8] -0.107 | [9] 0.086 | [10] -0.03 | [11] 0.034 | [12] -0.044 | [13] -0.008 | [14] 0.086

SERAC1 (UniProt Q96JX3)
inactive: [1] 0.004 | [3] -0.235 | [19] -0.014 | [15] 0.123 | [16] 0.056 | [20] 0.066 | [10] -0.115 | [11] 0.051 | [12] -0.193

SESN1 isoform 2 (UniProt Q9Y6P5)
inactive: [1] 0.084 | [3] 0.023 | [19] 0.077 | [15] 0.119 | [16] 0.127 | [20] -0.08 | [17] -0.093 | [10] -0.022 | [13] 0.024 | [18] -0.142

SIK2 (UniProt Q9H0K1)
inactive: [5] 0.29 | [15] 0.245 | [16] 0.028 | [7] 0.036 | [8] 0.033 | [9] -0.039 | [11] 0.004 | [14] -0.141

SLC16A3 (UniProt O15427)
inactive: [5] -0.085 | [7] 0.053 | [8] 0.204 | [9] -0.034 | [14] 0.183

SF1 (UniProt H7C0N4)
inactive: [2] 0.036 | [4] 0.028 | [6] 0.199 | [15] -0.003 | [16] -0.075 | [17] -0.045 | [13] -0.078 | [18] 0.036

SIAE (UniProt Q9HAT2)
inactive: [19] -0.053 | [5] -0.059 | [15] 0.065 | [16] 0.013 | [7] 0.28 | [20] 0.029 | [8] -0.094 | [9] -0.488 | [13] -0.097 | [14] 0.186

SLC11A1, A0A0A0MTL3
inactive: [17] -0.119 | [11] -0.083 | [18] 0.097

SIN3B (UniProt O75182)
inactive: [2] -0.167 | [4] -0.018 | [6] 0.046 | [15] -0.071 | [16] 0.132 | [11] 0.19 | [13] 1.04

SERPINF2 (UniProt P08697)
inactive: [2] -0.069 | [4] -0.051 | [19] 0.044 | [6] -0.056 | [15] -0.095 | [16] 0.004 | [20] -0.098 | [13] 0.005
